Results reported in patent US9211310B2, “Use of a Chinese medicine composition in preparing medicaments for treating secondary prevention of myocardial infarction” (TASLY PHARMACEUTICAL GROUP CO., LTD, priority 2010, dated 2015).
Further values from the same series stand in other lists.

System: patients after acute myocardial infarction
Test: Angina pectoris score, total and single (frequency/attack times, duration, pain degree, dose of nitroglycerin), same clinical trial
Type: in vivo, human
Description: In order to better understand the present invention, a multi-center, randomized, double-blind, double-dummy and positive drug controlled trial had been conducted. 3508 patients who were in accordance with the diagnostic standards of AMI for 28 days to 2 years and differentiated as Qi deficiency and blood stagnation syndrome by TCM were studied. 0.5 g Chinese medicine composition prepared by the method of EXAMPLE 1 (Coded as QSYQ) was administrated half an hour after meal, 3 times per day. Aspirine was used as a positive drug. The patients were treated for 1 year and observed for 6 months.
They included the overall survival time, angina pectoris score, TCM symptom score and life quality score, where angina pectoris score, TCM symptom score and life quality score were evaluated at randomization, in 1st, 3rd, 6th, 9th, 12th month after treatment and 18th month after follow-up.
(§1) Total angina pectoris score was described on every observation period and the change of observation in comparison with baseline. T-test or Wilcoxon rank sum test were used for inter-group comparison. Grade of total score was evaluated on every observation and Wilcoxon rank sum test was used for inter-group comparison. T-test and Pairing signed rank sum test were used for analyzing the change of total score on every observation between groups in comparison with the baseline.
(§2) Single angina pectoris score was depicted on every observation time-point and the change of observation in comparison with baseline. Wilcoxon rank sum test was used for inter-group comparison. Pairing signed rank sum test was used for analyzing the change of total score on every observation between groups in comparison with the baseline.
as §1, with “comparison with the baseline. T-test” for “comparison with baseline. T-test”
as §2, with “described” for “depicted”

Structure (SMILES): CC(=O)Oc1ccccc1C(=O)O [Control group, aspirine]
- change of attack times score, patients (%) (6 months after treatment-baseline, change 2, FAS): (2.47%)
- change of attack times score, patients (%) (6 months after treatment-baseline, change 2, PP): (1.85%)
- change of attack times score, patients (%) (6 months after treatment-baseline, change 3, FAS): (0.06%)
- change of attack times score, patients (%) (6 months after treatment-baseline, change 4, FAS): (0.11%)
- change of attack times score, patients (%) (6 months after treatment-baseline, change 4, PP): (0.14%)
- change of attack times score, patients (%) (9 months after treatment-baseline, change 0, FAS): (50.32%)
- change of attack times score, patients (%) (9 months after treatment-baseline, change 0, PP): (47.64%)
- change of attack times score, patients (%) (9 months after treatment-baseline, change 1, FAS): (2.98%)
- change of attack times score, patients (%) (9 months after treatment-baseline, change 1, PP): (2.43%)
- change of attack times score, patients (%) (9 months after treatment-baseline, change 2, FAS): (2.01%)
- change of attack times score, patients (%) (9 months after treatment-baseline, change 2, PP): (1.53%)
- change of attack times score, patients (%) (9 months after treatment-baseline, change 3, FAS): (0.06%)
- change of attack times score, patients (%) (9 months after treatment-baseline, change 4, FAS): (0.06%)
- change of attack times score, patients (%) (9 months after treatment-baseline, change 4, PP): (0.07%)
- change of attack times score, patients (%) (9 months after treatment-baseline, change 6, FAS): (0.06%)
- change of attack times score, patients (%) (9 months after treatment-baseline, change 6, PP): (0.07%)
- change of attack times score, patients (%) (9 months after treatment-baseline, change −1, FAS): (20.20%)
- change of attack times score, patients (%) (9 months after treatment-baseline, change −1, PP): (21.91%)
- change of attack times score, patients (%) (9 months after treatment-baseline, change −2, FAS): (20.60%)
- change of attack times score, patients (%) (9 months after treatment-baseline, change −2, PP): (22.26%)
- change of attack times score, patients (%) (9 months after treatment-baseline, change −3, FAS): (0.86%)
- change of attack times score, patients (%) (9 months after treatment-baseline, change −3, PP): (1.04%)
- change of attack times score, patients (%) (9 months after treatment-baseline, change −4, FAS): (2.47%)
- change of attack times score, patients (%) (9 months after treatment-baseline, change −4, PP): (2.70%)
- change of attack times score, patients (%) (9 months after treatment-baseline, change −5, FAS): (0.00%)
- change of attack times score, patients (%) (9 months after treatment-baseline, change −5, PP): (0.00%)
- change of attack times score, patients (%) (9 months after treatment-baseline, change −6, FAS): (0.40%)
- change of attack times score, patients (%) (9 months after treatment-baseline, change −6, PP): (0.35%)
